# The other results are listed elsewhere or left out.
# B1: AT3G44510(29) (Arabidopsis thaliana), F4J341 (protein)
# chain: MEEHLQGRIKLHDGRYLAYKERGVPKDDAKFTIVLVHGFGSSKDMNFNVSQELVNEIGIYFVLYDRAGYGESDPNPKRSLKSEAYDVQELADGLEIGSRFYLIGISMGSYTVWSCLKHIPQRLAGVAMVAPVVNFRWPSIPKSLMPKDYRREVAKWSVWIANYFPGLLQWLVTQNMFSTTSMLEKNPVYFNDQDIEVLKHIKGFPMLTKEKLRERGVFGTLRSDFLVAFGDWDFDPADLPDPSLSGPEKGSSSVHIWQGYEDKVMPFQLQRCLCRKLPWIRYHEVPKGGHLIVHYDGICDAILKSLLLGEDLPMYKPKAVITEPA
# Tests used:
# Experiment in all cases: glycan array binding signal (z-score within array); higher = stronger binding
# Conditions in all cases: glycan notation: IUPAC condensed, linker removed
# Glc(b1-4)Glc = target: Glc(b1-4)Glc
# Method in brief: (§1)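 Glycan array data came from 3228 arrays in the Consortium for Functional Glycomics database, and only arrays with an available protein sequence were kept. Glycan names were put into IUPAC-condensed notation, and columns mapping to the same glycan were averaged. The binding signal is a within-array Z-score, averaged across arrays of one protein sequence run at different concentrations or buffers and across linkers. A negative Z-score can be read as non-binding.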
# Glc(b1-6)Glc = target: Glc(b1-6)Glc
# Method in brief: as §1
# GlcA(b1-3)Gal = target: GlcA(b1-3)Gal
# Method in brief: as §1
# GlcA(b1-3)GlcNAc = target: GlcA(b1-3)GlcNAc
# Method in brief: as §1
# GlcA(b1-6)Gal = target: GlcA(b1-6)Gal
# Method in brief: as §1
# [1] = target: GlcA3S(b1-3)Gal(b1-4)GlcNAc(b1-2)Man
# Method in brief: as §1
# [2] = target: GlcA3S(b1-3)Gal(b1-4)GlcNAc(b1-3)Gal(b1-4)Glc
# Method in brief: as §1
# [3] = target: GlcNAc(a1-3)Gal(b1-4)GlcNAc
# Method in brief: as §1
# [4] = target: GlcNAc(a1-4)Gal(b1-3)GlcNAc
# Method in brief: as §1
# [5] = target: GlcNAc(a1-4)Gal(b1-4)GalNAc
# Method in brief: as §1
# [6] = target: GlcNAc(a1-4)Gal(b1-4)GlcNAc
# Method in brief: as §1
# [7] = target: GlcNAc(a1-4)Gal(b1-4)GlcNAc(b1-3)Gal(b1-4)Glc
# Method in brief: as §1
# [8] = target: GlcNAc(a1-4)Gal(b1-4)GlcNAc(b1-3)Gal(b1-4)GlcNAc
# Method in brief: as §1
# [9] = target: GlcNAc(a1-4)Gal(b1-4)GlcNAc(b1-3)Gal(b1-4)GlcNAc(b1-3)Gal(b1-4)GlcNAc
# Method in brief: as §1
# [10] = target: GlcNAc(a1-4)Gal(b1-4)GlcNAc(b1-3)Gal(b1-4)[Fuc(a1-3)]GlcNAc(b1-3)Gal(b1-4)[Fuc(a1-3)]GlcNAc
# Method in brief: as §1
# [11] = target: GlcNAc(a1-6)Gal(b1-4)GlcNAc
# Method in brief: as §1
# [12] = target: GlcNAc(b1-2)Gal(b1-3)GalNAc
# Method in brief: as §1
# [13] = target: GlcNAc(b1-2)Man(a1-3)[GlcNAc(b1-2)Man(a1-6)]Man(b1-4)GlcNAc(b1-4)GlcNAc
# Method in brief: as §1
# [14] = target: GlcNAc(b1-2)Man(a1-3)[GlcNAc(b1-2)Man(a1-6)]Man(b1-4)GlcNAc(b1-4)[Fuc(a1-6)]GlcNAc
# Method in brief: as §1
# [15] = target: GlcNAc(b1-2)Man(a1-3)[GlcNAc(b1-4)][GlcNAc(b1-2)Man(a1-6)]Man(b1-4)GlcNAc(b1-4)GlcNAc
# Method in brief: as §1
# [16] = target: GlcNAc(b1-2)Man(a1-3)[GlcNAc(b1-4)][GlcNAc(b1-2)Man(a1-6)]Man(b1-4)GlcNAc(b1-4)[Fuc(a1-6)]GlcNAc
# Method in brief: as §1
# [17] = target: GlcNAc(b1-2)[GlcNAc(b1-4)]Man(a1-3)[GlcNAc(b1-2)Man(a1-6)]Man(b1-4)GlcNAc(b1-4)GlcNAc
# Method in brief: as §1
# [18] = target: GlcNAc(b1-2)[GlcNAc(b1-4)]Man(a1-3)[GlcNAc(b1-4)][GlcNAc(b1-2)Man(a1-6)]Man(b1-4)GlcNAc(b1-4)GlcNAc
# Method in brief: as §1
# [19] = target: GlcNAc(b1-2)[GlcNAc(b1-4)]Man(a1-3)[GlcNAc(b1-4)][GlcNAc(b1-2)[GlcNAc(b1-6)]Man(a1-6)]Man(b1-4)GlcNAc(b1-4)GlcNAc
# Method in brief: as §1
# [20] = target: GlcNAc(b1-2)[GlcNAc(b1-4)]Man(a1-3)[GlcNAc(b1-4)][GlcNAc(b1-2)[GlcNAc(b1-6)]Man(a1-6)]Man(b1-4)GlcNAc(b1-4)[Fuc(a1-6)]GlcNAc
# Method in brief: as §1
# [21] = target: GlcNAc(b1-2)[GlcNAc(b1-6)]Man(a1-6)[GlcNAc(b1-2)Man(a1-3)]Man(b1-4)GlcNAc(b1-4)GlcNAc
# Method in brief: as §1
# [22] = target: GlcNAc(b1-2)[GlcNAc(b1-6)]Man(a1-6)[GlcNAc(b1-2)Man(a1-3)]Man(b1-4)GlcNAc(b1-4)[Fuc(a1-6)]GlcNAc
# Method in brief: as §1
# [23] = target: GlcNAc(b1-2)[GlcNAc(b1-6)]Man(a1-6)[GlcNAc(b1-4)][GlcNAc(b1-2)Man(a1-3)]Man(b1-4)GlcNAc(b1-4)GlcNAc
# Method in brief: as §1
# GlcNAc(b1-3)Fuc = target: GlcNAc(b1-3)Fuc
# Method in brief: as §1
# GlcNAc(b1-3)Gal = target: GlcNAc(b1-3)Gal
# Method in brief: as §1
# [24] = target: GlcNAc(b1-3)Gal(b1-3)GalNAc
# Method in brief: as §1
# GlcNAc(b1-3)Gal(b1-4)Glc = target: GlcNAc(b1-3)Gal(b1-4)Glc
# Method in brief: as §1
# [25] = target: GlcNAc(b1-3)Gal(b1-4)GlcNAc
# Method in brief: as §1
# [26] = target: GlcNAc(b1-3)Gal(b1-4)GlcNAc(b1-2)Man(a1-3)[GlcNAc(b1-3)Gal(b1-4)GlcNAc(b1-2)Man(a1-6)]Man(b1-4)GlcNAc(b1-4)GlcNAc
# Method in brief: as §1
# [27] = target: GlcNAc(b1-3)Gal(b1-4)GlcNAc(b1-2)Man(a1-3)[GlcNAc(b1-3)Gal(b1-4)GlcNAc(b1-2)Man(a1-6)]Man(b1-4)GlcNAc(b1-4)[Fuc(a1-6)]GlcNAc
# Method in brief: as §1
# [28] = target: GlcNAc(b1-3)Gal(b1-4)GlcNAc(b1-2)[GlcNAc(b1-3)Gal(b1-4)GlcNAc(b1-6)]Man(a1-6)[GlcNAc(b1-3)Gal(b1-4)GlcNAc(b1-2)Man(a1-3)]Man(b1-4)GlcNAc(b1-4)GlcNAc
# Method in brief: as §1
# [29] = target: GlcNAc(b1-3)Gal(b1-4)GlcNAc(b1-3)Gal(b1-4)GlcNAc
# Method in brief: as §1
# [30] = target: GlcNAc(b1-3)Gal(b1-4)GlcNAc(b1-3)Gal(b1-4)GlcNAc(b1-2)Man(a1-3)[GlcNAc(b1-3)Gal(b1-4)GlcNAc(b1-3)Gal(b1-4)GlcNAc(b1-2)Man(a1-6)]Man(b1-4)GlcNAc(b1-4)GlcNAc
# Method in brief: as §1
# [31] = target: GlcNAc(b1-3)Gal(b1-4)GlcNAc(b1-3)Gal(b1-4)GlcNAc(b1-2)Man(a1-3)[GlcNAc(b1-3)Gal(b1-4)GlcNAc(b1-3)Gal(b1-4)GlcNAc(b1-2)Man(a1-6)]Man(b1-4)GlcNAc(b1-4)[Fuc(a1-6)]GlcNAc
# Method in brief: as §1
# [32] = target: GlcNAc(b1-3)Gal(b1-4)GlcNAc(b1-3)Gal(b1-4)GlcNAc(b1-2)[GlcNAc(b1-3)Gal(b1-4)GlcNAc(b1-3)Gal(b1-4)GlcNAc(b1-6)]Man(a1-6)[GlcNAc(b1-3)Gal(b1-4)GlcNAc(b1-3)Gal(b1-4)GlcNAc(b1-2)Man(a1-3)]Man(b1-4)GlcNAc(b1-4)[Fuc(a1-6)]GlcNAc
# Method in brief: as §1
# [33] = target: GlcNAc(b1-3)Gal(b1-4)GlcNAc(b1-3)Gal(b1-4)GlcNAc(b1-3)Gal(b1-4)GlcNAc(b1-2)Man(a1-3)[GlcNAc(b1-3)Gal(b1-4)GlcNAc(b1-3)Gal(b1-4)GlcNAc(b1-3)Gal(b1-4)GlcNAc(b1-2)Man(a1-6)]Man(b1-4)GlcNAc(b1-4)GlcNAc
# Method in brief: as §1
# [34] = target: GlcNAc(b1-3)Gal(b1-4)GlcNAc(b1-3)Gal(b1-4)GlcNAc(b1-3)Gal(b1-4)GlcNAc(b1-2)Man(a1-3)[GlcNAc(b1-3)Gal(b1-4)GlcNAc(b1-3)Gal(b1-4)GlcNAc(b1-3)Gal(b1-4)GlcNAc(b1-2)Man(a1-6)]Man(b1-4)GlcNAc(b1-4)[Fuc(a1-6)]GlcNAc
# Method in brief: as §1
# [35] = target: GlcNAc(b1-3)Gal(b1-4)GlcNAc(b1-3)Gal(b1-4)GlcNAc(b1-3)Gal(b1-4)GlcNAc(b1-2)[GlcNAc(b1-3)Gal(b1-4)GlcNAc(b1-3)Gal(b1-4)GlcNAc(b1-3)Gal(b1-4)GlcNAc(b1-6)]Man(a1-6)[GlcNAc(b1-3)Gal(b1-4)GlcNAc(b1-3)Gal(b1-4)GlcNAc(b1-3)Gal(b1-4)GlcNAc(b1-2)Man(a1-3)]Man(b1-4)GlcNAc(b1-4)[Fuc(a1-6)]GlcNAc
# Method in brief: as §1
# [36] = target: GlcNAc(b1-3)Gal(b1-4)GlcNAc(b1-3)Gal(b1-4)GlcNAc(b1-3)Gal(b1-4)GlcNAc(b1-3)Gal(b1-4)GlcNAc(b1-2)Man(a1-3)[GlcNAc(b1-3)Gal(b1-4)GlcNAc(b1-3)Gal(b1-4)GlcNAc(b1-3)Gal(b1-4)GlcNAc(b1-3)Gal(b1-4)GlcNAc(b1-2)Man(a1-6)]Man(b1-4)GlcNAc(b1-4)GlcNAc
# Method in brief: as §1
# [37] = target: GlcNAc(b1-3)Gal(b1-4)GlcNAc(b1-3)Gal(b1-4)GlcNAc(b1-3)Gal(b1-4)GlcNAc(b1-3)Gal(b1-4)GlcNAc(b1-2)Man(a1-3)[GlcNAc(b1-3)Gal(b1-4)GlcNAc(b1-3)Gal(b1-4)GlcNAc(b1-3)Gal(b1-4)GlcNAc(b1-3)Gal(b1-4)GlcNAc(b1-2)Man(a1-6)]Man(b1-4)GlcNAc(b1-4)[Fuc(a1-6)]GlcNAc
# Method in brief: as §1
binder,measurement,setting,value
B1,glycan array binding signal (z-score),Glc(b1-4)Glc,-0.773
same,glycan array binding signal (z-score),Glc(b1-6)Glc,-0.74
same,glycan array binding signal (z-score),GlcA(b1-3)Gal,1.18
same,glycan array binding signal (z-score),GlcA(b1-3)GlcNAc,-0.45
same,glycan array binding signal (z-score),GlcA(b1-6)Gal,0.079
same,glycan array binding signal (z-score),[1],-0.477
same,glycan array binding signal (z-score),[2],-0.015
same,glycan array binding signal (z-score),[3],-0.516
same,glycan array binding signal (z-score),[4],0.585
same,glycan array binding signal (z-score),[5],0.233
same,glycan array binding signal (z-score),[6],0.318
same,glycan array binding signal (z-score),[7],0.232
same,glycan array binding signal (z-score),[8],-0.817
same,glycan array binding signal (z-score),[9],-0.072
same,glycan array binding signal (z-score),[10],1.31
same,glycan array binding signal (z-score),[11],-0.5
same,glycan array binding signal (z-score),[12],0.602
same,glycan array binding signal (z-score),[13],0.113
same,glycan array binding signal (z-score),[14],-0.697
same,glycan array binding signal (z-score),[15],-0.339
same,glycan array binding signal (z-score),[16],0.091
same,glycan array binding signal (z-score),[17],0.019
same,glycan array binding signal (z-score),[18],-0.629
same,glycan array binding signal (z-score),[19],-0.411
same,glycan array binding signal (z-score),[20],0.062
same,glycan array binding signal (z-score),[21],-0.575
same,glycan array binding signal (z-score),[22],-0.201
same,glycan array binding signal (z-score),[23],-0.394
same,glycan array binding signal (z-score),GlcNAc(b1-3)Fuc,0.104
same,glycan array binding signal (z-score),GlcNAc(b1-3)Gal,-0.695
same,glycan array binding signal (z-score),[24],0.009
same,glycan array binding signal (z-score),GlcNAc(b1-3)Gal(b1-4)Glc,-0.345
same,glycan array binding signal (z-score),[25],0.6
same,glycan array binding signal (z-score),[26],0.047
same,glycan array binding signal (z-score),[27],0.315
same,glycan array binding signal (z-score),[28],2.5
same,glycan array binding signal (z-score),[29],0.013
same,glycan array binding signal (z-score),[30],0.562
same,glycan array binding signal (z-score),[31],0.558
same,glycan array binding signal (z-score),[32],0.292
same,glycan array binding signal (z-score),[33],0.308
same,glycan array binding signal (z-score),[34],-0.699
same,glycan array binding signal (z-score),[35],1.12
same,glycan array binding signal (z-score),[36],0.873
same,glycan array binding signal (z-score),[37],-0.686

# Part of the list above, with bars between the fields:
binder | measurement | setting | value
B1 | glycan array binding signal (z-score) | GlcA(b1-3)GlcNAc | -0.45
same | glycan array binding signal (z-score) | GlcA(b1-6)Gal | 0.079

# Reference: the supplement of paper PMC8728848
